Data reported in paper PMC5504291, “Bacterial lipid droplets bind to DNA via an intermediary protein that enhances survival under stress”.

Target: T1, MLDSR (GST-MLDSR) (Rhodococcus jostii RHA1) (UniProt A0A1H4Y2R3)
T1 sequence (looked up, limits assumed): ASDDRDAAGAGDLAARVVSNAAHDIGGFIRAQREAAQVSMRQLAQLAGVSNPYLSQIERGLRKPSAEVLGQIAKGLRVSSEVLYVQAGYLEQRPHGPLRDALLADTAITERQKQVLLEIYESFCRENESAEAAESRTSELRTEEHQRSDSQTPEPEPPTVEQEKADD
Assay: EMSA
Conditions: EMSA: 20 mM Tris-HCl pH 7.5, 150 mM NaCl, 5 mM MgCl2, 1 mM EDTA, 1 mM DTT, 4% glycerol, 24 C or room temperature, 30-40 min; recombinant protein; protein details: N-terminal GST; single-stranded DNA

Question: Does “TCCGCTAGCTGGGTGCTAACAGA [motif 2 (+) ssDNA]” bind?
Answer: no binding

The exact form of at least one protein or probe is not confirmed. No signal at the amounts used counts as a negative. At least one verdict was read from the data and is not stated in words by the source. Tags and fusion partners may be left off the protein sequences shown.
